# Data: the supplement of paper PMC8728848
# The list shows a part of the results.
# B1: EfCBM33A (Enterococcus faecalis), Q838S1 (protein)
# chain: MKKSLLTIVLAFSFVLGGAALAPTVSEAHGYVASPGSRAFFGSSAGGNLNTNVGRAQWEPQSIEAPKNTFITGKLASAGVSGFEPLDEQTATRWHKTNITTGPLDITWNLTAQHRTASWDYYITKNGWNPNQPLDIKNFDKIASIDGKQEVPNKVVKQTINIPTDRKGYHVIYAVWGIGDTVNAFYQAIDVNIQ
# Experiments:
# Test in all cases: glycan array binding signal (z-score within array); higher = stronger binding
# Details in all cases: glycan notation: IUPAC condensed, linker removed
# [1] = target: Neu5Ac(a2-3)Gal(b1-4)GlcNAc(b1-2)Man(a1-3)[Neu5Ac(a2-6)Gal(b1-4)GlcNAc(b1-2)Man(a1-6)]Man(b1-4)GlcNAc(b1-4)GlcNAc
# Outline: (§1)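 Glycan array data came from 3228 arrays in the Consortium for Functional Glycomics database, and only arrays with an available protein sequence were kept. Glycan names were put into IUPAC-condensed notation, and columns mapping to the same glycan were averaged. The binding signal is a within-array Z-score, averaged across arrays of one protein sequence run at different concentrations or buffers and across linkers. A negative Z-score can be read as non-binding.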
# [2] = target: Neu5Ac(a2-3)Gal(b1-4)GlcNAc(b1-2)[Neu5Ac(a2-3)Gal(b1-4)GlcNAc(b1-4)]Man(a1-3)[GlcNAc(b1-4)][Neu5Ac(a2-3)Gal(b1-4)GlcNAc(b1-2)[Neu5Ac(a2-3)Gal(b1-4)GlcNAc(b1-6)]Man(a1-6)]Man(b1-4)GlcNAc(b1-4)GlcNAc
# Outline: as §1
# [3] = target: Neu5Ac(a2-3)Gal(b1-4)GlcNAc(b1-2)[Neu5Ac(a2-3)Gal(b1-4)GlcNAc(b1-4)]Man(a1-3)[GlcNAc(b1-4)][Neu5Ac(a2-3)Gal(b1-4)GlcNAc(b1-4)Man(a1-6)]Man(b1-4)GlcNAc(b1-4)GlcNAc
# Outline: as §1
# [4] = target: Neu5Ac(a2-3)Gal(b1-4)GlcNAc(b1-2)[Neu5Ac(a2-3)Gal(b1-4)GlcNAc(b1-6)]Man(a1-6)[Neu5Ac(a2-3)Gal(b1-4)GlcNAc(b1-2)Man(a1-3)][GlcNAc(b1-4)]Man(b1-4)GlcNAc(b1-4)GlcNAc
# Outline: as §1
# [5] = target: Neu5Ac(a2-3)Gal(b1-4)GlcNAc(b1-3)Gal
# Outline: as §1
# [6] = target: Neu5Ac(a2-3)Gal(b1-4)GlcNAc(b1-3)Gal(b1-3)GlcNAc
# Outline: as §1
# [7] = target: Neu5Ac(a2-3)Gal(b1-4)GlcNAc(b1-3)Gal(b1-4)GlcNAc
# Outline: as §1
# [8] = target: Neu5Ac(a2-3)Gal(b1-4)GlcNAc(b1-3)Gal(b1-4)GlcNAc(b1-2)Man(a1-3)[Neu5Ac(a2-3)Gal(b1-4)GlcNAc(b1-3)Gal(b1-4)GlcNAc(b1-2)Man(a1-6)]Man(b1-4)GlcNAc(b1-4)GlcNAc
# Outline: as §1
# [9] = target: Neu5Ac(a2-3)Gal(b1-4)GlcNAc(b1-3)Gal(b1-4)GlcNAc(b1-3)Gal(b1-4)GlcNAc
# Outline: as §1
# [10] = target: Neu5Ac(a2-3)Gal(b1-4)GlcNAc(b1-3)Gal(b1-4)GlcNAc(b1-3)Gal(b1-4)GlcNAc(b1-2)Man(a1-3)[Neu5Ac(a2-3)Gal(b1-4)GlcNAc(b1-3)Gal(b1-4)GlcNAc(b1-3)Gal(b1-4)GlcNAc(b1-2)Man(a1-6)]GalNAc
# Outline: as §1
# [11] = target: Neu5Ac(a2-3)Gal(b1-4)GlcNAc(b1-3)Gal(b1-4)GlcNAc(b1-3)GalNAc
# Outline: as §1
# [12] = target: Neu5Ac(a2-3)Gal(b1-4)GlcNAc(b1-3)Gal(b1-4)GlcNAc(b1-3)[Neu5Ac(a2-3)Gal(b1-4)GlcNAc(b1-3)Gal(b1-4)GlcNAc(b1-6)]GalNAc
# Outline: as §1
# [13] = target: Neu5Ac(a2-3)Gal(b1-4)GlcNAc(b1-3)Gal(b1-4)GlcNAc(b1-6)[Gal(b1-3)]GalNAc
# Outline: as §1
# [14] = target: Neu5Ac(a2-3)Gal(b1-4)GlcNAc(b1-3)Gal(b1-4)[Fuc(a1-3)]GlcNAc
# Outline: as §1
# [15] = target: Neu5Ac(a2-3)Gal(b1-4)GlcNAc(b1-3)GalNAc
# Outline: as §1
# [16] = target: Neu5Ac(a2-3)Gal(b1-4)GlcNAc(b1-3)[Neu5Ac(a2-3)Gal(b1-4)GlcNAc(b1-6)]GalNAc
# Outline: as §1
# [17] = target: Neu5Ac(a2-3)Gal(b1-4)GlcNAc(b1-6)GalNAc
# Outline: as §1
# [18] = target: Neu5Ac(a2-3)Gal(b1-4)GlcNAc(b1-6)[Gal(b1-3)]GalNAc
# Outline: as §1
# [19] = target: Neu5Ac(a2-3)Gal(b1-4)GlcNAc(b1-6)[Neu5Ac(a2-3)Gal(b1-3)]GalNAc
# Outline: as §1
# [20] = target: Neu5Ac(a2-3)Gal(b1-4)GlcNAc6S
# Outline: as §1
# [21] = target: Neu5Ac(a2-3)Gal(b1-4)[Fuc(a1-3)]GlcNAc
# Outline: as §1
# [22] = target: Neu5Ac(a2-3)Gal(b1-4)[Fuc(a1-3)]GlcNAc(b1-2)Man
# Outline: as §1
# [23] = target: Neu5Ac(a2-3)Gal(b1-4)[Fuc(a1-3)]GlcNAc(b1-3)Gal
# Outline: as §1
# [24] = target: Neu5Ac(a2-3)Gal(b1-4)[Fuc(a1-3)]GlcNAc(b1-3)Gal(b1-4)GlcNAc
# Outline: as §1
# [25] = target: Neu5Ac(a2-3)Gal(b1-4)[Fuc(a1-3)]GlcNAc(b1-3)Gal(b1-4)[Fuc(a1-3)]GlcNAc(b1-3)Gal(b1-4)[Fuc(a1-3)]GlcNAc
# Outline: as §1
# [26] = target: Neu5Ac(a2-3)Gal(b1-4)[Fuc(a1-3)]GlcNAc(b1-3)GalNAc
# Outline: as §1
# [27] = target: Neu5Ac(a2-3)Gal(b1-4)[Fuc(a1-3)]GlcNAc(b1-6)[Gal(b1-3)]GalNAc
# Outline: as §1
# [28] = target: Neu5Ac(a2-3)Gal(b1-4)[Fuc(a1-3)]GlcNAc(b1-6)[Neu5Ac(a2-3)Gal(b1-3)]GalNAc
# Outline: as §1
# [29] = target: Neu5Ac(a2-3)Gal(b1-4)[Fuc(a1-3)]GlcNAc6S
# Outline: as §1
# [30] = target: Neu5Ac(a2-3)Gal6S(b1-4)GlcNAc
# Outline: as §1
# [31] = target: Neu5Ac(a2-3)Gal6S(b1-4)[Fuc(a1-3)]GlcNAc
# Outline: as §1
# Neu5Ac(a2-3)GalNAc = target: Neu5Ac(a2-3)GalNAc
# Outline: as §1
# [32] = target: Neu5Ac(a2-3)GalNAc(b1-4)GlcNAc
# Outline: as §1
# [33] = target: Neu5Ac(a2-3)[GalNAc(b1-4)]Gal(b1-4)Glc
# Outline: as §1
# [34] = target: Neu5Ac(a2-3)[GalNAc(b1-4)]Gal(b1-4)GlcNAc
# Outline: as §1
# [35] = target: Neu5Ac(a2-3)[GalNAc(b1-4)]Gal(b1-4)GlcNAc(b1-3)GalNAc
# Outline: as §1
# [36] = target: Neu5Ac(a2-3)[Neu5Ac(a2-6)]GalNAc
# Outline: as §1
# Neu5Ac(a2-6)Gal = target: Neu5Ac(a2-6)Gal
# Outline: as §1
# [37] = target: Neu5Ac(a2-6)Gal(b1-3)GlcNAc(b1-3)[Gal(b1-4)GlcNAc(b1-6)]Gal(b1-4)Glc
# Outline: as §1
# Neu5Ac(a2-6)Gal(b1-4)Glc = target: Neu5Ac(a2-6)Gal(b1-4)Glc
# Outline: as §1
# [38] = target: Neu5Ac(a2-6)Gal(b1-4)GlcNAc
# Outline: as §1
# [39] = target: Neu5Ac(a2-6)Gal(b1-4)GlcNAc(b1-2)Man
# Outline: as §1
# [40] = target: Neu5Ac(a2-6)Gal(b1-4)GlcNAc(b1-2)Man(a1-3)Man(b1-4)GlcNAc(b1-4)GlcNAc
# Outline: as §1
# [41] = target: Neu5Ac(a2-6)Gal(b1-4)GlcNAc(b1-2)Man(a1-3)[Gal(b1-4)GlcNAc(b1-2)Man(a1-6)]Man(b1-4)GlcNAc(b1-4)GlcNAc
# Outline: as §1
# [42] = target: Neu5Ac(a2-6)Gal(b1-4)GlcNAc(b1-2)Man(a1-3)[GlcNAc(b1-2)Man(a1-6)]Man(b1-4)GlcNAc(b1-4)GlcNAc
# Outline: as §1
binder,measurement,setting,value
B1,glycan array binding signal (z-score),[1],-0.155
same,glycan array binding signal (z-score),[2],0.719
same,glycan array binding signal (z-score),[3],0.336
same,glycan array binding signal (z-score),[4],-0.714
same,glycan array binding signal (z-score),[5],-1.09
same,glycan array binding signal (z-score),[6],0.077
same,glycan array binding signal (z-score),[7],-0.177
same,glycan array binding signal (z-score),[8],1.14
same,glycan array binding signal (z-score),[9],-0.666
same,glycan array binding signal (z-score),[10],0.095
same,glycan array binding signal (z-score),[11],1.47
same,glycan array binding signal (z-score),[12],7.32
same,glycan array binding signal (z-score),[13],-0.958
same,glycan array binding signal (z-score),[14],1.81
same,glycan array binding signal (z-score),[15],-0.167
same,glycan array binding signal (z-score),[16],3.14
same,glycan array binding signal (z-score),[17],-0.077
same,glycan array binding signal (z-score),[18],-0.259
same,glycan array binding signal (z-score),[19],-1.34
same,glycan array binding signal (z-score),[20],0.223
same,glycan array binding signal (z-score),[21],-0.648
same,glycan array binding signal (z-score),[22],-0.094
same,glycan array binding signal (z-score),[23],0.027
same,glycan array binding signal (z-score),[24],-0.063
same,glycan array binding signal (z-score),[25],-0.474
same,glycan array binding signal (z-score),[26],2.79
same,glycan array binding signal (z-score),[27],-0.245
same,glycan array binding signal (z-score),[28],-0.871
same,glycan array binding signal (z-score),[29],1.17
same,glycan array binding signal (z-score),[30],-0.289
same,glycan array binding signal (z-score),[31],-0.531
same,glycan array binding signal (z-score),Neu5Ac(a2-3)GalNAc,0.041
same,glycan array binding signal (z-score),[32],0.359
same,glycan array binding signal (z-score),[33],-0.932
same,glycan array binding signal (z-score),[34],-1.06
same,glycan array binding signal (z-score),[35],0.272
same,glycan array binding signal (z-score),[36],0.448
same,glycan array binding signal (z-score),Neu5Ac(a2-6)Gal,0.387
same,glycan array binding signal (z-score),[37],-0.925
same,glycan array binding signal (z-score),Neu5Ac(a2-6)Gal(b1-4)Glc,-0.606
same,glycan array binding signal (z-score),[38],-0.501
same,glycan array binding signal (z-score),[39],-1.19
same,glycan array binding signal (z-score),[40],2.04
same,glycan array binding signal (z-score),[41],0.519
same,glycan array binding signal (z-score),[42],-0.922

# A second format for some results above:
binder	measurement	setting	value
B1	glycan array binding signal (z-score)	[13]	-0.958
same	glycan array binding signal (z-score)	[14]	1.81
